Experimental data reported in the supplement of paper PMC3334620.
Over roughly 33,000 sequences, “E-score (-0.5 to 0.5)” has its median near -8e-05; the highest 2% begin near 0.23. This is one part of the list.

target: T1, Nrg2 (UniProt P38082); experiment: PBM E-score (8-mer binding enrichment) (E-score (-0.5 to 0.5)); higher = stronger / more preferred TF binding; conditions: protein concentration: 100 nM; construct: GST-full length
T1 sequence: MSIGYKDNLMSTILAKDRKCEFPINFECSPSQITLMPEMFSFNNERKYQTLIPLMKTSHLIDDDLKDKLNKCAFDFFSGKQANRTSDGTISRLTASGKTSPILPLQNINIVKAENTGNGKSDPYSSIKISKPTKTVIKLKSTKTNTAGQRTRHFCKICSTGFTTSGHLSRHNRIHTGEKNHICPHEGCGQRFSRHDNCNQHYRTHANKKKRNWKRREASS
Method in brief: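 Detection of bound protein used fluorescent anti-GST, with scans normalised by masliner. The proteins were GST-tagged yeast transcription factors applied at about 100-200 nM to universal all-10-mer Agilent arrays made double-stranded by primer extension. Each ungapped eight-base word, pooled with its reverse complement, was scored with an E-score from the Universal PBM Analysis Suite.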

Sequence	PBM E-score
CTTACAAG	-0.213
AAATTTGA	0.0547
CCCCGTTA	-0.05
CAGCCCAG	-0.181
AGGAGGTC	-0.313
AACGCTCT	-0.26
AACTACGG	-0.043
CGATCTTC	0.0437
AGATGGTC	-0.0423
TATTCCCA	0.0218
CAGAGTCA	-0.132
GGCCCTAA	0.138
CGGATCCG	-0.035
TATAGGGA	-0.0294
GCGGGTCA	0.138
AGCCGTTA	-0.0174
CACCCGCG	0.169
CGGGCAGC	0.0778
GCCGCGGA	-0.00587
CTAGTCAG	-0.0488
GAGACTAA	-0.027
CCTAAGGA	0.118
AGGCGACT	-0.228
CCCTATGC	0.102
ACTTCGGA	0.14

Sequence	PBM E-score
AGAAAGCG	0.0347
CGTAATCA	0.198
AGTGTCTA	-0.0413
CCGCCCCA	0.0998
ACTCCCCA	-0.0321
GTGGCAAC	-0.0138
ATGGGTAA	0.0324
CTTACTCC	-0.0492
CAACACCG	-0.0448
CTATAGTC	-0.141
AACCGTAT	-0.248
ATTCCTCG	0.0752
AAGAGTAA	0.0215
ACTTACAA	0.0529
CAAACGGC	-0.0212
CCGGCATC	-0.191
AAGCTGAC	-0.148
CCTGTGAC	-0.0251
ATTGAAGG	-0.178
AGCGTAGC	-0.0469
GAGATTGC	-0.125
GCAGAGTA	0.00217
CTCCGCCC	-0.103
CCTTCGTC	-0.143
AATAGCGG	-0.132

Sequence	PBM E-score
GAGTATTA	0.00698
GAGCCCGA	-0.0829
ACCGCAGT	0.00709
ACCGACCC	0.00933
AACCACTG	0.0489
AAAAGGAC	0.0484
CCGAACCA	-0.00203
TCGGAGCA	-0.226
AAATGCCG	0.071
AATGATTC	0.122
CCCTCTAC	-0.156
ACCTGAGA	0.0535
AGCCCGCA	-0.0126
AACCTTGG	-0.00283
CGCATTAA	0.0849
CCTCCTGC	-0.165
CAACCCAG	-0.111
CTGGACAA	0.00924
CGACAAAA	0.227
ACCACCGA	0.0535
GGTTCAGA	0.0397
GGTTTTGA	0.148
TCTGCCCA	-0.137
AGTGCGAT	0.0799
TCAATAAA	-0.0825

An excerpt of the results above, for reference:
Sequence	PBM E-score
GGTTCAGA	0.0397
GGTTTTGA	0.148
TCTGCCCA	-0.137
AGTGCGAT	0.0799

Rewritten with bars between the fields: entries from further up.
Sequence | PBM E-score
AGTGCGAT | 0.0799
TCAATAAA | -0.0825

Following part

Sequence	PBM E-score
CCGATACC	0.075
TCCAGAGA	-0.144
CTTTTGGA	-0.0553
AGAGGACC	-0.116
CCCTCACA	-0.0171
ACCATCTC	0.0848
ATTCAGGA	0.117
ATAGAGGC	-0.245
CCATATGA	0.0683
GCATGGTA	-0.0382
AAAGAACT	0.0858
AGTATCGC	0.133
CTTCACGA	-0.206
GTATCGAA	0.123
CTTTTCGA	0.138
CGAACAAA	0.279
TATTCGCA	0.187
CCCACCGC	0.0113
CAGCGAAG	-0.189
GACCTCAA	0.00066
ATCTCCTG	0.0324
GCGGCGCC	0.176
GCTCGAAA	0.168
GCACGCCA	-0.156
ATTGTTCG	0.189

Sequence	PBM E-score
CAACCGAG	0.0557
TCTCTAAA	-0.134
TGGACACA	-0.108
GCAGGGTA	0.164
ATGAGGTG	0.0401
AATCCCTG	0.278
ACTACACT	-0.147
ACGATAAC	0.0465
ATCGCTCG	0.0845
ACTGGAAC	0.0198
TTTATAAA	0.245
AAGCCAGT	-0.169
AGTCGATG	0.00397
AAGACGAG	-0.17
ACTCGCGG	-0.0227
AGGGAGGC	-0.295
ATGTCACG	-0.0777
CGATGATC	-0.0749
GAGGCAAA	0.115
GACGGTGC	-0.139
AGCGTTGA	0.0457
GTGGCCAC	0.156
ACTGCATC	0.146
CGGTTAAA	0.0194
GAGGTTGA	-0.166

Sequence	PBM E-score
CCTAGCGA	-0.113
ATTATAAA	0.0896
AATTTGAC	0.127
GACTCAGA	-0.129
AAGCCCCG	-0.0541
TACCGAGA	-0.00359
CAGACCAC	0.0231
TTGAGCAA	-0.111
GAGTACGC	-0.12
GCAGAGAC	-0.235
CTGGGTAC	0.0272
AGTGGAAC	0.038
ACGGTAGG	-0.145
AGGTCACT	-0.192
AGCGAACC	0.0466
TAAACCTA	0.0795
TCCGTAGA	-0.0598
CAGGCTTA	-0.0796
ATTCGCTA	-0.0606
AATCATCC	0.0455
AAACCGTA	-0.0876
CATACGGC	0.0689
GATATAGA	0.0519
AGGGCGCC	0.139
CTCATCAA	-0.0118

Sequence	PBM E-score
ATGATCTA	0.236
CGATAGCA	-0.161
CGACCCCA	0.13
CTCAACCA	-0.00996
ACGGTTGG	-0.2
CACGCACC	-0.208
ACTAGGCT	0.0116
ACCAGTAC	-0.0262
CCTTCTAG	-0.215
CTGTCTGC	-0.206
AGGCTAGA	-0.299
AGCTAGGG	0.00862
ACTCTCGA	0.0367
CAGCCCAC	-0.14
GCGGGGCC	0.0355
ACCCTATG	0.127
CGTATTAA	-0.0064
ACAGTCCG	-0.172
ACTATCGC	0.0333
TATAAAGA	-0.044
CCCGGCCC	-0.251
ACTAAGTC	-0.0797
